The text below walks through data of article PMC6906326.

Amino acid sequences for entries named in this document (tags omitted).
UniProt P46937: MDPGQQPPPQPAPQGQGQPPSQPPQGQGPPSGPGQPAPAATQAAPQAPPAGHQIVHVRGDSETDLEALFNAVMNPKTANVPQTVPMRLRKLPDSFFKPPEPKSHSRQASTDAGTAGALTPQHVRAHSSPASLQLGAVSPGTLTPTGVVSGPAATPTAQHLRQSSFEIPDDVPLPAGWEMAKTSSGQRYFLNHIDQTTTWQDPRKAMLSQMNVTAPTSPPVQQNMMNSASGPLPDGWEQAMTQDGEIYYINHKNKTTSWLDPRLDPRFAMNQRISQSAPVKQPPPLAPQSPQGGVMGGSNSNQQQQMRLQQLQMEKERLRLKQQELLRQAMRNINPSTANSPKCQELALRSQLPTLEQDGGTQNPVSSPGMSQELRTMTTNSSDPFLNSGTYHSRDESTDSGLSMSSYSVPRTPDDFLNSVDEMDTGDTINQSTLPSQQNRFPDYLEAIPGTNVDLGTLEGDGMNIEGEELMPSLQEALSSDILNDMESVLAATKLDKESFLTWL
UniProt O95863: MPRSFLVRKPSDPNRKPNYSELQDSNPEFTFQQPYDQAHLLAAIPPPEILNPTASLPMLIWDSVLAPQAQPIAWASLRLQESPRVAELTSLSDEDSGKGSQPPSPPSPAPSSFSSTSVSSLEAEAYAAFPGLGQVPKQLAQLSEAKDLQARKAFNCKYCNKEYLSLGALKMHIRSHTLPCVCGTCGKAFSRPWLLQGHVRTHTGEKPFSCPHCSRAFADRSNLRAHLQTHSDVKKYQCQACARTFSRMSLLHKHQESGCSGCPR
UniProt Q15672: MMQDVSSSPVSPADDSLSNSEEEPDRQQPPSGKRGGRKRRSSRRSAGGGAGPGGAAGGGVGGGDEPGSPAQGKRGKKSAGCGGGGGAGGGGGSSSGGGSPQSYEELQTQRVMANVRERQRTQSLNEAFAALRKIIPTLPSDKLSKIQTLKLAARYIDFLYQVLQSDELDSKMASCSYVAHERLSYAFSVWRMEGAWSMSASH

No constants are given. Whether binding was seen depends on the method and setting. Binding seen in cells or lysates may run through a third protein. Some entries that bind do so weakly or less than the wild type.

The assay concerns the target YAP1 (human (endogenous in MKN28 and AGS)) (UniProt P46937). In words: co-IP; endogenous proteins from MKN28 and AGS lysates; protein A/G magnetic beads pre-incubated with anti-YAP1 or anti-snail1 antibody at 4 °C, washed three times with extraction buffer, western blot; also done after sh-CLDN6 knock-down (YAP1-snail1 interaction became weak).

Regarding snail1 (from UniProt O95863 1-264), the binding result was “binds”.

With twist1 (from UniProt Q15672 1-202), the binding result was “no binding”.
